These are yes or no findings as the source states them, for the method shown. Some results given as binding are weak or reduced against the parent protein; the word gives no strength.
Biological target: Filamin 1 (clone from the mouse E11 whole embryo library, yeast two-hybrid prey) (mouse) (UniProt Q8BTM8)
Assay: yeast two-hybrid screen, mouse E11 whole embryo library as prey

The chains behind the UniProt entries cited, without tags or fusion partners. Residues count along the entry.
UniProt Q8BTM8, residues 2-2647: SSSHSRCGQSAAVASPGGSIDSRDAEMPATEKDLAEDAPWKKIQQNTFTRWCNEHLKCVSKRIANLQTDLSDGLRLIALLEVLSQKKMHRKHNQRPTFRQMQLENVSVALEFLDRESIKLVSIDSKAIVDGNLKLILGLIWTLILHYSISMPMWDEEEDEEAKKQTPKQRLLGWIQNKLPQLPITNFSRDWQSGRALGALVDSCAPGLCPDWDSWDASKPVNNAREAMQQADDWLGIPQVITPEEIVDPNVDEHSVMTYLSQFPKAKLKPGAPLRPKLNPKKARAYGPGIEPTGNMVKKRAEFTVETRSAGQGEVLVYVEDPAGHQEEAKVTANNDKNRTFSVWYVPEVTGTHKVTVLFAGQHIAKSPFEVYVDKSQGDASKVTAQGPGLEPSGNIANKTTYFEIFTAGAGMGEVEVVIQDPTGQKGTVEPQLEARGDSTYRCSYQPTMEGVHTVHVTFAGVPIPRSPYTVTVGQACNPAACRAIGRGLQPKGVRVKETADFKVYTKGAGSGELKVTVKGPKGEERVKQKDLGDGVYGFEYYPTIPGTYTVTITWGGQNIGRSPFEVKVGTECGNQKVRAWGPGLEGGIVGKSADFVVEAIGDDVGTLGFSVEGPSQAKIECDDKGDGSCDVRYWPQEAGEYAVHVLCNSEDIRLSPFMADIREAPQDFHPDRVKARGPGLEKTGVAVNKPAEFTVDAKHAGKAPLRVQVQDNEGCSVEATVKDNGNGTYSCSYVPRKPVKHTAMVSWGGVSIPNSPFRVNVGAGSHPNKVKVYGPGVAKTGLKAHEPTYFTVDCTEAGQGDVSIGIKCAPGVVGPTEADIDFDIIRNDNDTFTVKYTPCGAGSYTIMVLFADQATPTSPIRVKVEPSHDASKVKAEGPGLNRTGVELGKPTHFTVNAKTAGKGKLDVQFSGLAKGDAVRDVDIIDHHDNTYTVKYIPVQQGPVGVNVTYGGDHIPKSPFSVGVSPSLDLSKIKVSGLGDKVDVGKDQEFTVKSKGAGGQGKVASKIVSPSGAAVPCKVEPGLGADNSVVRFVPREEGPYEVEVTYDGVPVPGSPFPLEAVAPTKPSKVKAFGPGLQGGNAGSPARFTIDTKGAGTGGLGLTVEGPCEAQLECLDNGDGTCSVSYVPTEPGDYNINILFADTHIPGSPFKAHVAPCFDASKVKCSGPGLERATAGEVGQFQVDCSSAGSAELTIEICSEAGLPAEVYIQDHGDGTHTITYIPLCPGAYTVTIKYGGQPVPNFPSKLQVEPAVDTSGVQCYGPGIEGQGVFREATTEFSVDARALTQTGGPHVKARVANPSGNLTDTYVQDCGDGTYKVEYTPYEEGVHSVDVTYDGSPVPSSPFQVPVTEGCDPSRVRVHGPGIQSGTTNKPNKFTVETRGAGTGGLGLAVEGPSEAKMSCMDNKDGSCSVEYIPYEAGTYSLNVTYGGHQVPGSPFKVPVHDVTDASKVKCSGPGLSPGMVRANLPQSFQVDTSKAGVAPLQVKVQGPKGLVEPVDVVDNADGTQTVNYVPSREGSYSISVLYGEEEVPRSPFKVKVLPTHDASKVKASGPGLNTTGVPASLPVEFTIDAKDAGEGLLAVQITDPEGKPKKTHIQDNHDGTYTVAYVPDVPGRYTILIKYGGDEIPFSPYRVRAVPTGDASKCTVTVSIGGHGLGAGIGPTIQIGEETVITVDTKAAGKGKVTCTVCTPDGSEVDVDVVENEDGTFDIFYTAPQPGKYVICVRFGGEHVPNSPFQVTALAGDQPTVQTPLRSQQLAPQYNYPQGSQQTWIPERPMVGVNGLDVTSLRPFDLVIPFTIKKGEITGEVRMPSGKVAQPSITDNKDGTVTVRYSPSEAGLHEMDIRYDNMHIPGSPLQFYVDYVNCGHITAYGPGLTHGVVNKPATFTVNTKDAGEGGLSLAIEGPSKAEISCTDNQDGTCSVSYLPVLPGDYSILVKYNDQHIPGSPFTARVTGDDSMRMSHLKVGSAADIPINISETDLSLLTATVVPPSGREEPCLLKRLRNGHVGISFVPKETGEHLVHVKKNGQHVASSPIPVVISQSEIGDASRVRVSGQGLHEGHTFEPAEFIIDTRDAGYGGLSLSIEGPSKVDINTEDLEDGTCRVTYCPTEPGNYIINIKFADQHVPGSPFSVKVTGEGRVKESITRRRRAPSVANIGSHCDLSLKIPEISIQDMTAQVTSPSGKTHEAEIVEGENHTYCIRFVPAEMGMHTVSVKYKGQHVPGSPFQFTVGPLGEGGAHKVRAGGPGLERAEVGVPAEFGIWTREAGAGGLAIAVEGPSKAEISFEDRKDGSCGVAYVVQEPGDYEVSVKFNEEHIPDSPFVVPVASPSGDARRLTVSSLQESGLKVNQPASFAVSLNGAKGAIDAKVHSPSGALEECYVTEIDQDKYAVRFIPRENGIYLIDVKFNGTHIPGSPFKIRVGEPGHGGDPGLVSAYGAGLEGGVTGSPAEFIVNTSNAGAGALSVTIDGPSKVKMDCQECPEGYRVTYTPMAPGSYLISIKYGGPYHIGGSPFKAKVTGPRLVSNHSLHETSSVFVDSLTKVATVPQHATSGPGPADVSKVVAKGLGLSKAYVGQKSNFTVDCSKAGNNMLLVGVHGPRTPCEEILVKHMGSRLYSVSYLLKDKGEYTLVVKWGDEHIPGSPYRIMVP

B1: common C-terminal region of FILIPs (residues 508-965 of the deduced amino acid sequence of S-FILIP), yeast two-hybrid bait (protein, not shown: large carriers)
chain: MEEETKNKNMGREVLNLTKELELSKRYSRALRPSGNGRRMVDVPVASTGVQTEAVCGDAAEEETPAVFIRKSFQEENHIMSNLRQVGLKKPMERSSVLDRYPPAANELTMRKSWIPWMRKRENGPSTPQEKGPRPNQGAGHPGELVLAPKQGQPLHIRVTPDHENSTATLEITSPTSEEFFSSTTVIPTLGNQKPRITIIPSPNVMSQKPKSADPTLGPERAMSPVTITTISREKSPEGGRSAFADRPASPIQIMTVSTSAAPTEIAVSPESQEVPMGRTILKVTPEKQTVPAPVRKYNSNANIITTEDNKIHIHLGSQFKRSPGPAAEGVSPVITVRPVNVTAEKEVSTGTVLRSPRNHLSSRPGASKVTSTITITPVTTSSTRGTQSVSGQDGSSQRPTPTRIPMSKGMKAGKPVVAASGAGNLTKFQPRAETQSMKIELKKSAASSTASLGGGKG
In the case of B1, the binding is reported as “binds”.

— US20040229797A1
